Assay: Paclitaxel solubilization in water with or without PEG-functionalized carbon nanotubes
Details: PEG-functionalized carbon nanotube solution, ethanol removed by evaporation

SMILES: CC(=O)O[C@H]1C(=O)[C@@]2(C)[C@H]([C@H](OC(=O)c3ccccc3)[C@]3(O)C[C@H](OC(=O)[C@H](O)[C@@H](NC(=O)c4ccccc4)c4ccccc4)C(C)=C1C3(C)C)[C@]1(OC(C)=O)CO[C@@H]1C[C@@H]2O [PACLITAXEL, paclitaxel]
- solubility after ethanol removal: remains in solution

— patent US20090170768A1, “WATER-SOLUBLE CARBON NANOTUBE COMPOSITIONS FOR DRUG DELIVERY AND MEDICINAL APPLICATIONS” (William Marsh Rice University, priority 2007, published 2009)
